Experimental data: PubChem BioAssay AID1053208 (Peter MacCallum Cancer Centre, 2014)
Assay: 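Synthetic lethal interactions between gene loss and doxorubicin in osteosarcoma cells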 (primary screen). Cell system: mouse osteosarcoma cells, early-passage culture from an engineered mouse model of fibroblastic bone tumour. Knock-down reagent: siRNA pool against mouse genes, 40 nM. Time to read-out: about 120 h (48 h before drug, then 72 h with drug). Conditions: doxorubicin 100 nM for 72 h, roughly 30-40% inhibitory dose. Measured: 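Viability read as ATP luminescence after 72 h of 100 nM doxorubicin or none, duplicate wells averaged, scaled to non-targeting siRNA, then expressed as robust z-scores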. Reading the numbers: viability z-score with doxorubicin and doxorubicin viability vs non-targeting: higher = more viable cells under doxorubicin; viability z-score without drug: higher = more viable cells with knock-down alone; z-score of drug to no-drug ratio: higher = less drug sensitisation by knock-down. Call rule: 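Called active if knock-down leaves viability unchanged without drug (z within -2 to 2) but lowers it with doxorubicin (z at or under -2)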.
The whole screen tested about 17,000 reagents; this is a random part of them. In the full data, 788 (4.7%) got an active call. 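Calls rest on z-score classes alone; an extra cut-off of viability at most 70% of control was not applied to them.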 A number with no mark means an inactive call.

gene | combined z-score class | viability z-score with doxorubicin | viability z-score without drug | z-score of drug to no-drug ratio | doxorubicin viability vs non-targeting
Arv1 | low cell count with doxorubicin only (active) | -2.14 | 0.67 | -2.47 | 0.75
Uba1 | low cell count with doxorubicin only (active) | -4.05 | -1.85 | -3.26 | 0.58
Cask | low cell count without drug only | 0.9 | -2.19 | 2.92 | 1.02
Angptl6 | no change with or without drug | -0.22 | 0.84 | -0.67 | 0.92
Gpr12 | no change with or without drug | -0.9 | -1.35 | 0.11 | 0.86
N4bp3 | no change with or without drug | -0.67 | -0.17 | -0.45 | 0.88
Agr2 | no change with or without drug | 0.11 | -0.51 | 0.56 | 0.95
Slc7a11 | no change with or without drug | -1.57 | -0.17 | -1.46 | 0.8
Mrps14 | no change with or without drug | 0.9 | -1.85 | 2.59 | 1.02
Ubqln1 | no change with or without drug | -0.22 | 0.34 | -0.34 | 0.92
Slc6a9 | high cell count with and without drug | 2.02 | 2.53 | 0.45 | 1.12
Naip6 | no change with or without drug | 1.8 | 1.18 | 1.12 | 1.1
Sh3rf2 | no change with or without drug | -0.67 | -1.01 | 0.11 | 0.88
Fgf2 | no change with or without drug | -0.67 | 0.34 | -0.79 | 0.88
Bin3 | no change with or without drug | -0.22 | -0.17 | 0 | 0.92
Ptms | no change with or without drug | 0.56 | 0.51 | 0.34 | 0.99
Oas1f | no change with or without drug | 1.12 | -0.51 | 1.69 | 1.04
Col15a1 | no change with or without drug | 0.67 | 0.84 | 0.22 | 1
Trub2 | no change with or without drug | 0.22 | 1.85 | -0.79 | 0.96
Svep1 | no change with or without drug | -1.35 | -0.51 | -1.01 | 0.82
Psenen | high cell count without drug only | 0.79 | 2.36 | -0.56 | 1.01
Aldh3b1 | no change with or without drug | -0.45 | -0.17 | -0.22 | 0.9
Eif4g2 | no change with or without drug | -1.12 | -0.17 | -1.01 | 0.84
S1pr3 | no change with or without drug | -0.67 | 0.17 | -0.67 | 0.88
Tbata | no change with or without drug | -1.12 | 0.67 | -1.46 | 0.84
Trim29 | no change with or without drug | 1.35 | 1.85 | 0.22 | 1.06
Nudt15 | no change with or without drug | 0 | -1.52 | 1.24 | 0.94
Kat7 | high cell count with doxorubicin only | 2.02 | -0.51 | 2.7 | 1.12
Ccr6 | no change with or without drug | 1.46 | 0.51 | 1.24 | 1.07
Tcf12 | no change with or without drug | 0 | 0.84 | -0.45 | 0.94
Gtf2f1 | no change with or without drug | -1.57 | 0 | -1.57 | 0.8
Gpr141 | no change with or without drug | 0.45 | 0.17 | 0.45 | 0.98
Rgs8 | no change with or without drug | 0 | -0.34 | 0.34 | 0.94
Rab5a | no change with or without drug | 1.01 | -0.51 | 1.57 | 1.03
Asb18 | no change with or without drug | 1.01 | 0.84 | 0.56 | 1.03
Exd1 | low cell count without drug only | -0.9 | -2.87 | 1.35 | 0.86
Irgc | no change with or without drug | 0 | 1.35 | -0.79 | 0.94
Rusc1 | no change with or without drug | 0.45 | 0.51 | 0.22 | 0.98
Hoxa7 | low cell count with doxorubicin only (active) | -2.47 | -1.85 | -1.35 | 0.72
Polr1e | low cell count with doxorubicin only (active) | -2.02 | 0 | -2.02 | 0.76
Lcp1 | no change with or without drug | 1.12 | 0.51 | 0.9 | 1.04
Cacng1 | no change with or without drug | 0 | 1.18 | -0.67 | 0.94
Csdc2 | no change with or without drug | -0.67 | -1.01 | 0.11 | 0.88
Ggt7 | no change with or without drug | 1.57 | 1.18 | 0.9 | 1.08
Hs2st1 | high cell count with doxorubicin only | 2.25 | 1.52 | 1.35 | 1.14
Polr2a | low cell count with doxorubicin only (active) | -3.26 | -1.01 | -2.81 | 0.65
Tescl | no change with or without drug | -0.34 | -0.84 | 0.34 | 0.91
Arhgef18 | low cell count with doxorubicin only (active) | -2.47 | -1.01 | -1.91 | 0.72
Pcdhgb5 | no change with or without drug | 0 | 0.84 | -0.45 | 0.94
Ech1 | low cell count without drug only | -1.57 | -2.53 | 0.22 | 0.8

Entries listed so far whose target name begins with C or c (5):
gene | combined z-score class | viability z-score with doxorubicin | viability z-score without drug | z-score of drug to no-drug ratio | doxorubicin viability vs non-targeting
Cask | low cell count without drug only | 0.9 | -2.19 | 2.92 | 1.02
Col15a1 | no change with or without drug | 0.67 | 0.84 | 0.22 | 1
Ccr6 | no change with or without drug | 1.46 | 0.51 | 1.24 | 1.07
Cacng1 | no change with or without drug | 0 | 1.18 | -0.67 | 0.94
Csdc2 | no change with or without drug | -0.67 | -1.01 | 0.11 | 0.88
